The source of these data is the supplement of paper PMC7024190.

Counter-ions that a name gives are not always drawn. This is one part of the list. Single values are uncertain here, since repeats match poorly.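 A first-round screen of about ten thousand compounds sought those raising reporter output, using human embryonic kidney cells briefly transfected with a plasmid carrying a Renilla luciferase gene driven by the HSV-TK promoter.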

This test relates to HEK 293FT. Briefly: log relative Renilla luciferase luminescence (reporter expression vs reference, reference not stated) (log (base not stated)); higher = higher recombinant reporter expression. Particulars: 10 µM; time after transfection 48 h.
On to `C=C(C)CN1CC[C@]23c4c5ccc(O)c4O[C@H]2c2[nH]c4ccccc4c2C[C@@]3(O)C1C5`, for which the log is -0.0215.

On to `C#CCN(C)[C@H](C)Cc1ccccc1` [Benzeneethanamine, N,Alpha-dimethyl-N-2-propynyl-(R)- [CAS]], for which the log worked out at 0.138.

Take `CN1CC[C@]2(c3cccc(O)c3)Cc3nc4ccccc4cc3C[C@H]2C1`: the log worked out at 0.129.

As to `COc1cc2c(cc1OC)[C@@]13CCN4CC5=CCO[C@H]6CC(=O)N2[C@H]1[C@H]6[C@H]5C[C@H]43` [Brucine], the log was determined as 0.153.

Take `CC(C)CC(N(C)C)C1(c2ccc(Cl)cc2)CCC1` (stereo not drawn) [Sibutramine]: the log came out at 0.115.

Turning to `CN1C(=O)CN=C(c2ccccc2)c2cc(Cl)ccc21` [Diazepam], the log was -0.257.

As to `O=c1c2ccccc2[se]n1-c1ccccc1`, the log worked out at 0.00749.

In the case of `O=C1CN=C(c2ccccc2)c2cc([N+](=O)[O-])ccc2N1` [Nitrazepam], the log was -0.133.

`Oc1ccc2c3c1O[C@H]1c4[nH]c5ccccc5c4C[C@@]4(O)[C@@H](C2)N(CC2CC2)CC[C@]314` [Naltrindole]: the log was found to be 0.178.

In the case of `C[C@]12CCC(=O)C=C1CC[C@@H]1[C@@H]2CC[C@@]2(C)[C@H]1CC[C@]2(C)O` [Methyltestosterone], the log was -0.058.

As for `CNC1=Nc2ccc(Cl)cc2C(c2ccccc2)=[N+]([O-])C1`, the log stood at 0.0275.

Turning to `CCOC(=O)c1cncn1[C@H](C)c1ccccc1`, the log is -0.145.

Turning to `CC(O)(CS(=O)(=O)c1ccc(F)cc1)C(=O)Nc1ccc(C#N)c(C(F)(F)F)c1` (stereo not drawn), the log is -0.0265.

For `CC(C)[C@]12O[C@H]1[C@@H]1O[C@]13[C@]1(O[C@H]1C[C@H]1C4=C(CC[C@@]13C)C(=O)OC4)[C@@H]2O`, the log is -1.27.

As to `C[C@]12Cc3c[nH]nc3C[C@@H]1CC[C@@H]1[C@@H]2CC[C@@]2(C)[C@H]1CC[C@]2(C)O` [Stanozolol], the log worked out at 0.045.

Turning to `c1ccc2c3c([nH]c2c1)CNCC3`, the log was found to be 0.0745.

`CC[C@]1(O)CC[C@H]2[C@@H]3CCC4=CCCC[C@@H]4[C@H]3CC[C@@]21C` [Ethylestrenol]: the log is -0.221.

On to `C=C1C[C@@H]2[C@H](CC[C@]3(C)C(=O)CC[C@@H]23)[C@@]2(C)C=CC(=O)C=C12`, for which the log is -0.211.

`C[C@]12CC[C@H](O)CC1=CC[C@@H]1[C@@H]2CC[C@@]2(C)[C@H]1CC[C@]2(C)O`: the log was -0.0832.

With `O=C1Nc2ccc(Cl)cc2C(c2ccccc2Cl)=NC1O` (stereo not drawn) [Lorazepam], the log is -0.0165.

For the compound `Cc1ccc(-c2nc3ccc(C)cn3c2CC(=O)N(C)C)cc1`, the log was -0.176.

Turning to `NC(=O)C[S+]([O-])C(c1ccccc1)c1ccccc1` (stereo not drawn) [Modafinil], the log is -0.102.

Turning to `C=C(C)[C@@H]1[C@H]2OC(=O)[C@@H]1[C@]1(O)C[C@H]3O[C@]34C(=O)O[C@H]2[C@]14C.CC(C)(O)[C@@H]1[C@H]2OC(=O)[C@@H]1[C@]1(O)C[C@H]3O[C@]34C(=O)O[C@H]2[C@]14C` [Picrotin - Picrotoxinin], the log came to 0.103.

In the case of `O=C(O)C(Cl)Cl`, the log is -0.0963.

As for `CN1C(=O)COc2c(C(=O)NC3CN4CCC3CC4)cc(Cl)cc21` (stereo not drawn) [Azasetron], the log is -0.161.

On to `CN1C(=O)CN=C(c2ccccc2)c2cc([N+](=O)[O-])ccc21` [Nimetazepam], for which the log was -0.507.

Turning to `COc1ccc2c(c1)[C@]13CCCC[C@@H]1[C@H](C2)N(C)CC3` [d-3-Methoxy-N-methylmorphinan hydrobromide], the log was -0.172.

In the case of `COc1cccc(C2(O)CCCCC2CN(C)C)c1` (stereo not drawn) [Tramadol], the log is 0.0423.

As to `C[N+]1(C)CCN(c2ccccc2)CC1`, the log is -0.386.

Consider `CCN(C(C)=O)c1cccc(-c2ccnc3c(C#N)cnn23)c1` [Zaleplon], for which the log amounted to 0.122.

As for `CCCCCCCCCOc1ccc2[nH]cc(CCN)c2c1` [5-Nonyloxytryptamine], the log is 0.0487.

As for `COc1ccc(C(CN(C)C)C2(O)CCCCC2)cc1` (stereo not drawn), the log is -0.0832.

`CC[C@@H]1C=CC=CC[C@H](C)[C@@H](O)[C@@H](C)C(=O)[C@H](C)[C@@H](O)[C@H](C)C(=O)[C@H](C)[C@@H](O)[C@H](C)C=CC(=O)O[C@H]2[C@@H](C)[C@@H](CC1)O[C@@]1(CC[C@@H](C)[C@@H](C[C@H](C)O)O1)[C@@H]2C`: the log is -0.498.

With `FC(F)(F)c1cccc(N2CCNCC2)c1`, the log is 0.0994.

As to `CCCN1C[C@H](CSC)C[C@@H]2c3cccc4[nH]cc(c34)C[C@H]21`, the log came out at 0.077.

As for `Cc1ncc2n1-c1ccc(Cl)cc1C(c1ccccc1F)=NC2`, the log was -0.19.

On to `c1ccc(Cn2ccnc2)cc1`, for which the log is 0.141.

In the case of `CNC(=O)Oc1ccc2c(c1)[C@]1(C)CCN(C)[C@@H]1N2C` [Physostigmine], the log is -0.13.
